Measured values: PubChem BioAssay AID2551 (National Center for Advancing Translational Sciences (NCATS), 2010)
Where “and” joins values, the source holds several entries; their conditions need not be identical. Equal values may be shown once. In all, about 310,000 compounds went through this assay and about 17,000 (5.5%) were called active. Inconclusive means that the source gave no clear call. Such entries were picked first, then a sample of the others. Calls come from the whole dose curve; as a rule, active = well fitted inhibition curve with a large enough effect; inconclusive = small, poorly fitted or top-dose-only effect, or effect the other way; inactive = no such curve, though single readings can be large or run the other way. Potencies beside an inconclusive call are fits to weak or partial responses and may not hold up. Some compounds were tested as several samples or in several runs, with calls that do not always agree.

By UniProt entry, the sequences of proteins in these tests, tags left out. Where a name states a change or a piece, a line headed by the entry shows the natural chain unless it says otherwise.
UniProt P51450: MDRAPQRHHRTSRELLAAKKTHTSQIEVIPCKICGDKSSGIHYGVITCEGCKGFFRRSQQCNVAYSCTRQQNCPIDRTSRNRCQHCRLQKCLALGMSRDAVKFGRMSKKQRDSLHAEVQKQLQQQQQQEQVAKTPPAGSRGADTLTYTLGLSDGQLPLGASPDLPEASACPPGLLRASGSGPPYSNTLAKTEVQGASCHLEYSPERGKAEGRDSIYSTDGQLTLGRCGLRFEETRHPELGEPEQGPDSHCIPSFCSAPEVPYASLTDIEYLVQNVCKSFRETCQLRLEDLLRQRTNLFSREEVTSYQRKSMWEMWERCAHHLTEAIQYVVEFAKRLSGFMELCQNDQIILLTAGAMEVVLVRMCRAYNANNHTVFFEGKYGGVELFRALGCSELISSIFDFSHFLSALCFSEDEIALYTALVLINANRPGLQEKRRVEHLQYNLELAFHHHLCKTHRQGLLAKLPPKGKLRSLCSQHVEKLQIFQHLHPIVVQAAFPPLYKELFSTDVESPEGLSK

The compounds below were run against Nuclear receptor ROR-gamma (Mus musculus) (UniProt P51450) (assay: qHTS for inhibitors of ROR gamma transcriptional activity). Conditions: Drosophila S2 Gal4-RORgamma UAS-luciferase reporter, 20 h; activity change, negative = inhibition: at 53.6 µM (top of the series).
Summary of the method: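 Stably transfected Drosophila Schneider cells are the test system, with ROR gamma fused to Gal4 and luciferase under UAS control; luminescence is read after 20 hr of 700 uM copper sulfate induction at ambient temperature.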
% is set by controls: 0 for no effect and ±100 for the full control effect; potency is the fitted concentration of half-maximal effect.
Note: nearly all actives have a fitted effect of over 60% in size.

SMILES | activity change, negative = inhibition | Potency
COc1ccccc1N1CCN(C(=O)CSc2nnc(NC(=O)C(C)C)s2)CC1 | inactive: 24.9% | 
COc1ccccc1NC(=S)NCCC(c1ccccc1)c1ccccc1 |  | active: 11.2 µM
Cc1ccc(C(=O)Nc2nc3c(s2)CCCC3)o1 |  | inconclusive: 20 µM [inhibitor, single point]
CC1=CC(=O)c2ccccc2C1=O |  | active: 8.91 µM and active: 11.2 µM
CCCCCOC(=O)c1[nH]c2c(c1C)C(=O)CC(c1ccco1)C2 (stereo unspecified) |  | inconclusive: 15.8 µM [activator, partial curve]
c1coc(CNc2ncnc3[nH]ncc23)c1 |  | inconclusive: 12.6 µM [activator, single point]
CCCOc1ccc(Cc2c(Cl)nc(SC)nc2NC)cc1 |  | inconclusive: 3.16 µM [activator, single point]
CCn1c(C)nc2cc(-c3nc4n(n3)Cc3ccccc3-4)ccc21 |  | active: 0.891 µM
Cc1ccnc(NC(=O)c2sc3cc(Cl)ccc3c2Cl)c1 |  | active: 2 µM
CCC(C)c1ccc(NC(=S)NCc2cccnc2)cc1 (stereo unspecified) |  | inconclusive: 35.5 µM [inhibitor, single point]
Cc1cc(=O)[nH]c(N/N=C/c2c(C)nn(-c3ccccc3)c2Cl)n1 |  | inconclusive: 15.8 µM [inhibitor, single point]
COc1ccc(CNC(=S)Nc2ccccc2F)cc1 |  | inconclusive: 31.6 µM [inhibitor, single point]
O=C1CN(S(=O)(=O)c2ccccc2)c2ccccc2N1 |  | inconclusive: 14.1 µM [activator, single point]
COc1ccc(Cc2nnc(Nc3ccc(C)cc3)o2)cc1OC | inactive: 24.1% | 
Cc1ccc(C(=O)Nc2sc3c(c2C(=O)NCc2ccco2)CCCC3)cc1 |  | inconclusive: 10 µM [activator, partial curve, poor fit]
O=C(NCc1ccc2c(c1)OCO2)c1ccc(Cl)c(S(=O)(=O)NCc2ccccc2)c1 | inactive: -0.719% | 
Cc1nc(NC(=O)c2cncc(Br)c2)ccc1Br | inactive: -14.1% [at 1.91 µM] | 
Cc1noc(C)c1COc1ccc(C(=O)OCC(=O)OC(C)(C)C)cc1 |  | inconclusive: 35.5 µM [inhibitor, single point]
O=C(NC(=S)Nc1cccc2ncccc12)c1cccs1 |  | active: 8.91 µM
Cc1ccc(NCCC(=O)c2cccs2)cc1 | inactive: -44.8% | 
CCOC(=O)C(=CNc1ccc(NC2=NCC(C)S2)cc1)C(=O)OCC (stereo unspecified) | inactive: 0.177% | 
CC(=O)Nc1ccc2nc(SCC(=O)NCCOc3ccccc3)sc2c1 |  | inconclusive: 22.4 µM [activator, single point]
CCc1ccc(NC(=S)N(CCN(C)C)C(C)c2ccncc2)cc1 (stereo unspecified) |  | inconclusive: 35.5 µM [inhibitor, single point]
O=C(Nc1nc2ccccc2[nH]1)c1cccc(Br)c1 |  | active: 2.24 µM
C[C@]12C(=O)N(c3ccccc3)C(=O)N1[C@@H]1c3ccccc3OC[C@@H]1[C@H]2c1ccccc1 |  | inconclusive: 4.47 µM [inhibitor, full curve, poor fit]
CCCCCCCCCc1nc2sc3c(c2c(=O)n1NC(=O)c1ccccc1[N+](=O)[O-])CC(C)(C)OC3 | inactive: 3.53% | 

SMILES | activity change, negative = inhibition | Potency
Cc1cccc(-c2onc3ccc(C4(C)OCCO4)cc23)c1 |  | inconclusive: 10 µM [inhibitor, partial curve]
COc1ccc(O[C@H]2C=C[C@@H](c3ccccc3)O[C@@H]2COC(=O)CCC(C)=NO[C@@H]2O[C@H](COC(C)=O)[C@@H](OC(C)=O)[C@H](OC(C)=O)[C@H]2OC(C)=O)cc1 |  | inconclusive: 8.91 µM [activator, partial curve]
COC(=O)/C=C/C(=O)Nc1cccc(C(F)(F)F)c1 |  | inconclusive: 0.562 µM [activator, single point]
Cc1ccccc1OCC(=O)N/N=C/c1ccc(N(C)C)cc1 | inactive: -13.6% | 
O=C(OCc1nc2scc(-c3ccccc3)c2c(=O)[nH]1)c1cc(Cl)ccc1[N+](=O)[O-] |  | active: 11.2 µM
CSc1cccc(NC(=O)C2CCCN(S(=O)(=O)c3ccc(F)cc3)C2)c1 (stereo unspecified) | inactive: 37.3% | 
COC(=O)c1c(O)c2ccccc2[nH]c1=O |  | inconclusive: 0.0398 µM [inhibitor, full curve, poor fit]
Cc1ccn2c(-c3csc(NCc4ccco4)n3)c(C)nc2c1 |  | active: 12.6 µM
CCOC(=O)C1CCCN(C/C(O)=C(\C#N)c2nc(-c3ccccc3)cs2)C1 (stereo unspecified) |  | inconclusive: 3.55 µM [activator, partial curve, poor fit]
CCC1CCCCN1C(=S)Nc1ccc(OC(F)F)cc1 (stereo unspecified) |  | inconclusive: 25.1 µM [inhibitor, single point]
Cc1cc(C)c(NC(=O)c2cccc(NC(=O)c3ccco3)c2)c(C)c1 |  | inconclusive: 35.5 µM [activator, single point]
COC(=O)C1(O)CC(CC(C)C)=NN1C(=O)c1ccccc1 (stereo unspecified) |  | inconclusive: 35.5 µM [inhibitor, partial curve, poor fit]
Cc1ccc(C(=O)Nc2onc(C)c2C#N)cc1 | inactive: 30.8% | 
O=C(OCc1ccccc1)c1cccnc1 | inactive: 1.4% [at 10 µM] | 
COc1cccc(OCC(=O)NN=C2c3ccccc3-c3ccccc32)c1 | inactive: -44.4% | 
CCOC(=O)N=Nc1c2ccccc2c2nc3no[nH]c3nc12 |  | active: 0.355 µM
CC(C)C[C@@H](CC(=O)N[C@@H](CCC(=O)O)CC(=O)O)NC(=O)[C@@H]1CNCC[C@H]1NC(=O)C[C@@H](NC(=O)C[C@H](Cc1c[nH]c2ccccc12)NC(=O)[C@@H]1CCCC[C@H]1N)C(C)C | inactive: 19.6% | 
O=C(Nc1ccc2ccccc2c1)c1ccccc1O |  | inconclusive: 10 µM [inhibitor, partial curve, poor fit]
Cc1cc(C)c(Cn2c3ccccc3c3cnn(CC(=O)NCCN4CCOCC4)c(=O)c32)c(C)c1 |  | inconclusive: 12.6 µM [inhibitor, single point]
Cc1[nH]c(=S)c(C#N)c(C)c1CCC#N |  | active: 14.1 µM
Cc1c(C(=O)N2CCOCC2)c(S(=O)(=O)Nc2ccc(OC(F)(F)F)cc2)c(C)n1C | inactive: 25.8% | 
CCOc1cc(C(=O)NN=C2CCCC2)cc(OCC)c1OCC | inactive: -39.9% | 
Cc1nn(-c2ccccc2)c(Cl)c1/C=N/NC(=O)c1ccc(CNc2ccccc2)o1 |  | inconclusive: 8.91 µM [activator, partial curve]
O=C(O)COc1cccc(NC(=O)c2ccccc2)c1 |  | inconclusive: 35.5 µM [inhibitor, single point]
COC(=O)c1cc(C#N)c(N(C)Cc2ccccc2)nc1C |  | inconclusive: 35.5 µM [activator, single point]
Cc1nc2ccccc2c(=O)n1/N=C/c1c(O)ccc2ccccc12 |  | active: 12.6 µM

SMILES | activity change, negative = inhibition | Potency
CCN(CC)c1ccc(/C=C(/C#N)c2nc3ccccc3[nH]2)c(OC(C)C)c1 |  | inconclusive: 2.24 µM [inhibitor, full curve]
Cc1ccc(C(=O)N2C3C=CC(C3)C2(C(F)(F)F)C(F)(F)F)cc1 (stereo unspecified) |  | inconclusive: 5.62 µM [activator, single point]
O=C(NC(=S)Nc1nc2c(s1)CCCC2)c1ccc(C(=O)c2ccccc2)cc1 |  | inconclusive: 0.631 µM [inhibitor, full curve]
CCSc1nc2sc3c(c2c(=O)n1-c1ccccc1)CCN(C)C3 |  | inconclusive: 0.1 µM [activator, partial curve]
N#Cc1c(/N=C/c2cccs2)sc2c1CCC2 |  | inconclusive: 0.891 µM [activator, full curve]
COc1ccc(CCN2CC(C(=O)NCCc3cnn(C)c3)CCC2=O)cc1 (stereo unspecified) | inactive: 5.68% | 
CCS(=O)(=O)c1ccc2c(c1)N(S(C)(=O)=O)CC(C(=O)NCc1ccccc1OC)O2 (stereo unspecified) |  | inconclusive: 1.58 µM [inhibitor, partial curve]
CC(NCC(=O)NCCc1ccc(S(N)(=O)=O)cc1)c1ccc(F)cc1 (stereo unspecified) |  | inconclusive: 0.224 µM [inhibitor, full curve, poor fit]
O=C(CSc1ncnc2[nH]ncc12)Nc1cccc(Oc2ccccc2)c1 | inactive: -6.61% | 
CS(=O)(=O)N1CCN(C2C3CC4CC(C3)CC2C4)CC1 (stereo unspecified) | inactive: -0.388% | 
C/C(=N\NC(=O)c1cc(C)[nH]n1)c1ccc(-c2ccccc2)cc1 |  | inconclusive: 2.82 µM [activator, partial curve, poor fit]
CC1(C)C(C=C(Cl)Cl)C1C(=O)N(Cc1ccccc1Cl)C1CCS(=O)(=O)C1 (stereo unspecified) |  | inconclusive: 12.6 µM [activator, single point]
Cc1ccccc1C(=O)Oc1ccc(Br)cc1C(=S)N1CCCC1 |  | active: 11.2 µM
O=C(CCCSc1nc2ccccc2[nH]1)NCc1ccccc1F | inactive: 25.5% | 
N=C(N)SCc1ccccn1 | inactive: -32.3% | 
CC[N+](CC)(CCNC(=O)C(=O)NCC[N+](CC)(CC)Cc1ccccc1Cl)Cc1ccccc1Cl |  | inactive
O=c1c(CCc2ccccc2)nc2cnc(N3CCOCC3)nc2n1Cc1ccc(F)cc1 | inactive: 0.709% | 
CCc1cc(-c2n[nH]c(C)c2-c2nc3ccccc3n2C)c(O)c(CN2CCN(C)CC2)c1O | inactive: 10.9% | 
O=C(Oc1ccnc2cc(Cl)ccc12)N1CCCCCC1 | inactive: 3.54% | 
CCCn1c(SCC(=O)N2CCCCC2)nnc1C(C)C | inactive: 15.9% | 
O=C1CC[C@@]23/C=C/C(=O)NCCCCNCCCNC(=O)/C=C/c4ccc(c2c4)OC3C1 (stereo partly specified) | inactive: -5.22% | 
COc1ccccc1Nc1ncc(C(=O)Nc2ccc(OC)c(OC)c2)c2ccccc12 | inactive: 4.75% | 
O=C1c2ccccc2C(=Nc2ccccc2)C1c1cccc(Br)c1 (stereo unspecified) | inactive: -17.5% | 
O=C1NC(c2ccccc2OC(F)F)Oc2ccccc21 (stereo unspecified) |  | inconclusive: 35.5 µM [inhibitor, single point]

Single records (already shown):
CC(=O)Nc1ccc2nc(SCC(=O)NCCOc3ccccc3)sc2c1 reads Potency: inconclusive: 22.4 µM [activator, single point]
O=C1c2ccccc2C(=Nc2ccccc2)C1c1cccc(Br)c1 (stereo unspecified) reads activity change, negative = inhibition: inactive: -17.5%
O=C(O)COc1cccc(NC(=O)c2ccccc2)c1 reads Potency: inconclusive: 35.5 µM [inhibitor, single point]
COc1cccc(OCC(=O)NN=C2c3ccccc3-c3ccccc32)c1 reads activity change, negative = inhibition: inactive: -44.4%
